Laboratory results: PubChem BioAssay AID1224826 (NIAID, 2016)
This is an unselected part of about 17,000 reagents tested. About 1,110 of them (6.6%) count as active. 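Active means lowered or raised reporter signal; replicate intensities are raw and not normalised per plate.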

- Test: 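Regulators of Tlr4 signalling leading to Tnf-alpha expression in macrophages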 (primary screen)
- Cell system: RAW264.7 G9 macrophages from mouse bearing reporters for p65 (GFP) and the Tnf promoter (mCherry)
- Reagents: siRNA pool against mouse genes, 100 nM
- Time to read-out: 16 h of LPS stimulation, after 2 days of siRNA transfection
- Challenge: bacterial lipopolysaccharide (Salmonella minnesota R595), 10 ng/ml
- Read-out: 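Imaged Tnf reporter mCherry in nuclei, minus background, normalised per plate to the median and expressed as robust z-scores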
- Scale: Tnf reporter robust z-score: higher = stronger Tnf promoter reporter signal after LPS; Tnf reporter intensity: higher = stronger Tnf promoter reporter signal
- Call rule: 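a well counts as active at a score of -1.3 or below (Tlr4 knock-down control median) or above 3 (raised signal); controls and wells holding fewer than 50 cells are excluded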
- Meaning of the calls: active = Tnf reporter clearly lowered or raised; inactive = no clear change in Tnf reporter

gene knocked down | Tnf reporter robust z-score | fewer than 50 cells in well | Tnf reporter intensity, replicate 1 | Tnf reporter intensity, replicate 2 | outcome
Tgfbi (GeneID 21810) | -0.69 | enough cells in well | 184 | 99.3 | inactive
Nyap2 (GeneID 241134) | -0.04 | enough cells in well | 206 | 156 | inactive
Or9k2 (GeneID 258672) | – | fewer than 50 cells per well; well left out of calls | 49.8 | 88.3 | inactive
Hipk4 (GeneID 233020) | – | fewer than 50 cells per well; well left out of calls | 139 | 230 | inactive
Zfp109 (GeneID 56869) | 0.33 | enough cells in well | 150 | 125 | inactive
Atg4b (GeneID 66615) | -0.93 | enough cells in well | 144 | 87.3 | inactive
Acp1 (GeneID 11431) | -0.18 | enough cells in well | 138 | 183 | inactive
Golt1b (GeneID 66964) | 0.54 | enough cells in well | 182 | 54 | inactive
Uevld (GeneID 54122) | -1.26 | enough cells in well | 120 | 73.7 | inactive
Plau (GeneID 18792) | -0.31 | enough cells in well | 197 | 192 | inactive
Or1f12 (GeneID 258280) | 0.45 | enough cells in well | 188 | 153 | inactive
Pam (GeneID 18484) | 0.02 | enough cells in well | 79.4 | 132 | inactive
LOC243676 (retired record) (GeneID 243676) | -0.52 | enough cells in well | 165 | 87.6 | inactive
4931414P19Rik (GeneID 74359) | – | fewer than 50 cells per well; well left out of calls | 155 | 82.2 | inactive
Clec4f (GeneID 51811) | -1.13 | enough cells in well | 61.7 | 164 | inactive
Gp6 (GeneID 243816) | -0.64 | enough cells in well | 172 | 160 | inactive
Akr1c20 (GeneID 116852) | 0.77 | enough cells in well | 273 | 222 | inactive
Prss59 (GeneID 73481) | – | fewer than 50 cells per well; well left out of calls | 144 | 57.3 | inactive
Atoh1 (GeneID 11921) | 0.42 | enough cells in well | 224 | 160 | inactive
D930030D11Rik (GeneID 320874) | -0.5 | enough cells in well | 105 | 176 | inactive
Or9s13 (GeneID 257890) | -1.5 | enough cells in well | 83.6 | 81.5 | active
Or4p18 (GeneID 258919) | -0.78 | enough cells in well | 125 | 121 | inactive
Or7e173 (GeneID 258551) | – | fewer than 50 cells per well; well left out of calls | 65.7 | 66 | inactive
Lrfn4 (GeneID 225875) | 1.12 | enough cells in well | 243 | 216 | inactive
Or51l14 (GeneID 259098) | 0.66 | enough cells in well | 79.7 | 144 | inactive
Slc39a5 (GeneID 72002) | -1.23 | enough cells in well | 61.3 | 68.2 | inactive
Odf4 (GeneID 252868) | -0.93 | enough cells in well | 131 | 102 | inactive

Continued (7 carried over from the part before).
gene knocked down | Tnf reporter robust z-score | fewer than 50 cells in well | Tnf reporter intensity, replicate 1 | Tnf reporter intensity, replicate 2 | outcome
Or9s13 (GeneID 257890) | -1.5 | enough cells in well | 83.6 | 81.5 | active
Or4p18 (GeneID 258919) | -0.78 | enough cells in well | 125 | 121 | inactive
Or7e173 (GeneID 258551) | – | fewer than 50 cells per well; well left out of calls | 65.7 | 66 | inactive
Lrfn4 (GeneID 225875) | 1.12 | enough cells in well | 243 | 216 | inactive
Or51l14 (GeneID 259098) | 0.66 | enough cells in well | 79.7 | 144 | inactive
Slc39a5 (GeneID 72002) | -1.23 | enough cells in well | 61.3 | 68.2 | inactive
Odf4 (GeneID 252868) | -0.93 | enough cells in well | 131 | 102 | inactive
Dusp6 (GeneID 67603) | 2.68 | enough cells in well | 385 | 291 | inactive
Or8k35 (GeneID 404473) | 3.15 | enough cells in well | 374 | 320 | active
Dbndd1 (GeneID 72185) | -0.21 | enough cells in well | 161 | 50.4 | inactive
Ppp1r14c (GeneID 76142) | -0.39 | enough cells in well | 224 | 158 | inactive
Psme4 (GeneID 103554) | – | fewer than 50 cells per well; well left out of calls | 26.4 | 0 | inactive
Or5b95 (GeneID 258693) | 1.08 | enough cells in well | 271 | 147 | inactive
2010106E10Rik (GeneID 67715) | – | fewer than 50 cells per well; well left out of calls | 242 | 74.4 | inactive
Mapk13 (GeneID 26415) | -0.29 | enough cells in well | 159 | 148 | inactive
Slc1a3 (GeneID 20512) | 3.57 | enough cells in well | 212 | 234 | active
Aldh1a2 (GeneID 19378) | -1.54 | enough cells in well | 81.1 | 81.5 | active
Dscam (GeneID 13508) | – | fewer than 50 cells per well; well left out of calls | 82 | 63.9 | inactive
Tgfbr3 (GeneID 21814) | -0.44 | enough cells in well | 178 | 127 | inactive
Cyp1a2 (GeneID 13077) | 0.86 | enough cells in well | 257 | 309 | inactive
Sstr4 (GeneID 20608) | -0.33 | enough cells in well | 305 | 60.7 | inactive
Akr1c18 (GeneID 105349) | – | fewer than 50 cells per well; well left out of calls | 152 | 160 | inactive
Mbtd1 (GeneID 103537) | -0.53 | enough cells in well | 253 | 138 | inactive
Bhlhe23 (GeneID 140489) | – | fewer than 50 cells per well; well left out of calls | 0 | 106 | inactive
Rpa2 (GeneID 19891) | 1.89 | enough cells in well | 226 | 193 | inactive
Gm9732 (GeneID 108168154) | – | fewer than 50 cells per well; well left out of calls | 116 | 34.6 | inactive
Kcne5 (GeneID 66240) | 0.34 | enough cells in well | 229 | 195 | inactive
Or6c209 (GeneID 258929) | – | fewer than 50 cells per well; well left out of calls | 37.4 | 60.8 | inactive
Cdh7 (GeneID 241201) | 0.63 | enough cells in well | 263 | 286 | inactive
Vmn1r178 (GeneID 232959) | -0.11 | enough cells in well | 115 | 85.4 | inactive
Elfn2 (GeneID 207393) | -1.15 | enough cells in well | 123 | 75.8 | inactive
Or8b1b (GeneID 258797) | 0.31 | enough cells in well | 89.7 | 154 | inactive
Smarcb1 (GeneID 20587) | 0.46 | enough cells in well | 300 | 268 | inactive
Polr2h (GeneID 245841) | -0.71 | enough cells in well | 108 | 88.9 | inactive
Ca5a (GeneID 12352) | 0.21 | enough cells in well | 181 | 182 | inactive
Raf1 (GeneID 110157) | -0.93 | enough cells in well | 121 | 123 | inactive
Scnn1a (GeneID 20276) | -0.2 | enough cells in well | 282 | 181 | inactive
Dgcr6 (GeneID 13353) | 0.1 | enough cells in well | 230 | 222 | inactive
